Here are results for 1 substance from publication PMC12750958.

Results are given in words; binding and its absence hold for the method and conditions named. In cells and extracts the contact can be indirect. Some entries that bind do so weakly or less than the wild type.

This experiment has as its target p53 (human (endogenous in hAMSCs)) (UniProt P04637). Kind of experiment: co-IP; RIPA lysate, sonicated, of P10 hAMSCs cocultured with or without PBLs (1:100); antibody (ab26, 1:100) on magnetic beads, lysate incubated overnight at 4 °C, washed four times with PBST, eluted by boiling in loading buffer, SDS-PAGE and blot.

For the substance “small ubiquitin-like modifier-1 (SUMO-1) (from UniProt P63165 1-97)”, the binding result was “binds”.
